This is an account of results in PMC4484454.

Sequences of proteins named here, by UniProt entry; tags and fusion partners are left off.
UniProt Q01094: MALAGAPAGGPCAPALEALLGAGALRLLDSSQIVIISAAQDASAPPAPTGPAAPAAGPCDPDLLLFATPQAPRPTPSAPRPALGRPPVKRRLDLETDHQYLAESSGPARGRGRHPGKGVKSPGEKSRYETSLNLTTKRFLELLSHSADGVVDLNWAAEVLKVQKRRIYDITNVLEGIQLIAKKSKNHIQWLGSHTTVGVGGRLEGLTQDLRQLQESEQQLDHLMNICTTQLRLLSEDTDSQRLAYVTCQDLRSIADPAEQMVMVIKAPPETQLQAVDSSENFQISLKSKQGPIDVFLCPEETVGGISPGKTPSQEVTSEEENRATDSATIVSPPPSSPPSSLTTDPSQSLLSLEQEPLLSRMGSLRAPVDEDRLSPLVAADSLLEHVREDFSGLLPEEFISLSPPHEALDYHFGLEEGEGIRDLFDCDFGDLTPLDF
UniProt Q13547: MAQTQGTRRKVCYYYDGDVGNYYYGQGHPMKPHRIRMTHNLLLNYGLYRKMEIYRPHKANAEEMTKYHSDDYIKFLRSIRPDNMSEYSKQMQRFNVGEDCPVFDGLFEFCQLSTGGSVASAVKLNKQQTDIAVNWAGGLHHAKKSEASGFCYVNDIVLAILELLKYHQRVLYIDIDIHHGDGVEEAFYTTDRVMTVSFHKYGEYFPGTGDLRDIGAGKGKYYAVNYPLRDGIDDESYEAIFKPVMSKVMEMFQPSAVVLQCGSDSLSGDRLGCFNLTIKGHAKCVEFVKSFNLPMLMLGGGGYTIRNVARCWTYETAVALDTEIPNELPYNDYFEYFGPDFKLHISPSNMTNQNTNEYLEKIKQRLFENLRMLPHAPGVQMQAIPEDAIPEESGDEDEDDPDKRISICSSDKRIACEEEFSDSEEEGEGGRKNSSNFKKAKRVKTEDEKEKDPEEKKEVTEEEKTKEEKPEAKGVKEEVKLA

For the experiment, the target named is E2F1 (human (endogenous in PC3 and 5637)) (UniProt Q01094). Kind of experiment: co-IP; lysates of PC3 and 5637 cells in CHAPS buffer (25 mM HEPES, 2 mM EGTA, 2.5 mM MgCl2, 0.3% CHAPS); 500 ug lysate, 3 ug anti-E2F1 antibody with protein A/G agarose overnight at 4°C; blot for HDAC1.

Results are given in words; binding and its absence hold for the method and conditions named. In cells and extracts the contact can be indirect. Some binding calls cover weakened binding; strength is not graded here.

Regarding HDAC1 (from UniProt Q13547 1-482), the binding result is listed as “binds”.
